Experimental data published in patent US20080096239A1.
No constants are given. Whether binding was seen depends on the method and setting. Binding seen in cells or lysates may run through a third protein. Some results given as binding are weak or reduced against the parent protein; the word gives no strength. Tags and fused reporters may be left off the sequences shown.

Protein sequences, listed by entry. Tags and fused reporters are not part of them. Lines headed by an entry give the natural chain unless they say otherwise; changes in a name come on top.
UniProt P19793: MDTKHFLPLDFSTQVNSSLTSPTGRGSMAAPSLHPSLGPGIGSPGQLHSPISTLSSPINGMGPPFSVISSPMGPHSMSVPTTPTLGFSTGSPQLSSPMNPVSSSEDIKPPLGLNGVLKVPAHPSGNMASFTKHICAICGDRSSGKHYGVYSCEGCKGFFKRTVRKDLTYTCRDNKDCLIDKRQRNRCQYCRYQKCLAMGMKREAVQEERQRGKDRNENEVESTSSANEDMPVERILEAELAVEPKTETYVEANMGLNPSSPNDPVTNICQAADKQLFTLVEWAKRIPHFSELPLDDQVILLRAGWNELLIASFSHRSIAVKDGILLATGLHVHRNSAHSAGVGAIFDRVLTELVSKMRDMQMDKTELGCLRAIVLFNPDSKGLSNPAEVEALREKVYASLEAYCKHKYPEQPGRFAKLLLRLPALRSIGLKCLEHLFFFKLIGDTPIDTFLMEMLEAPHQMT

Biological target: RXRalpha amino acids 225-462 construct (Homo sapiens (Human)) (UniProt P19793)
Assay: co-expression in E. coli; untagged RXRalpha co-purified with His6-PXR on Ni chelation resin, then size exclusion

- binding: binds
B1: His6-PXR (human PXR amino acids 130-434 with N-terminal polyhistidine tag) (receptor)
chain: MKKGHHHHHHGSERTGTQPLGVQGLTEEQRMMIRELMDAQMKTFDTTFSHFKNFRLPGVLSSGCELPESLQAPSREEAAKWSQVRKDLCSLKVSLQLRGEDGSVWNYKPPADSGGKEIFSLLPHMADMSTYMFKGIISFAKVISYFRDLPIEDQISLLKGAAFELCQLRFNTVFNAETGTWECGRLSYCLEDTAGGFQQLLLEPMLKFHYMLKKLQLHEEEYVLMQAISLFSPDRPGVLQHRVVDQLQEQFAITLKSYIECNRPQPAHRFLFLKIMAMLTELRSINAQHTQRLLRIQDIHPFATPLMQELFGITGS
